# In patent US20030170643A1, “Regulation of apoB treatment and drug screening for cardiovascular and metabolic disorders or syndromes” (priority 1999, published 2003):
# For at least one compound, name, drawing or mass did not settle the structure.
# Tested on: rat primary hepatocytes
# Experiment: Pulse-chase analysis of labeled apoB with wortmannin
# Type: cell-based
# Conditions: [35S]methionine labeling
smiles,measurement,value
COC[C@H]1OC(=O)c2coc3c2[C@@]1(C)C1=C(C3=O)[C@@H]2CCC(=O)[C@@]2(C)C[C@H]1OC(C)=O [wortmannin],"DHA-induced degradation of newly synthesized apoB, pulse-chase",inhibited
